Reference: PubChem BioAssay AID188 (DTP/NCI, 2004)
Shown are survivors of the treated group in tumour-free mice. Counts of survivors are from the toxicity check (mostly the fifth day) where no day follows; animals may have died later. Schedules are NCI's codes, taken here to give the interval after Q, in days (D) or hours (H), and the number of doses after X. Counts like (3×) stand for listed records that agree. Some entries were tested several times; the results are listed from low to high.

System: CD2F1 mice, nontumored, toxicity/survival
Experiment: NCI In Vivo Anticancer Drug Screen. Data for tumor model Nontumored Animals (Toxicity Test) in CD2F1 (CDF1) mice
[1] = dose: 200.0 mg/kg/injection, schedule: Q01DX001 (ip), vehicle: saline
[2] = dose: 300.0 mg/kg/injection, schedule: Q01DX001 (ip), vehicle: saline
[3] = dose: 500.0 mg/kg/injection, schedule: Q01DX001 (ip), vehicle: saline
[4] = dose: 1.0 mg/kg/injection, schedule: Q01DX001 (ip), vehicle: DMSO
[5] = dose: 10.0 mg/kg/injection, schedule: Q01DX001 (ip), vehicle: DMSO
[6] = dose: 100.0 mg/kg/injection, schedule: Q01DX001 (ip), vehicle: DMSO

Measured: survivor count

O=P1(N(CCCl)CCCl)NCCCO1 (stereo unspecified)
9 of 10 and 4 of 4: dose: 400.0 mg/kg/injection, schedule: Q01DX001 (ip), vehicle: saline
5 of 5: dose: 16.2 mg/kg/injection, schedule: Q10HX004 (ip), vehicle: saline | dose: 26.0 mg/kg/injection, schedule: Q08DX002 (ip), vehicle: saline | dose: 27.0 mg/kg/injection, schedule: Q10HX004 (ip), vehicle: saline | dose: 43.0 mg/kg/injection, schedule: Q08DX002 (ip), vehicle: saline | dose: 45.0 mg/kg/injection, schedule: Q10HX004 (ip), vehicle: saline | dose: 72.0 mg/kg/injection, schedule: Q08DX002 (ip), vehicle: saline | dose: 120.0 mg/kg/injection, schedule: Q08DX002 (ip), vehicle: saline | dose: 200.0 mg/kg/injection, schedule: Q08DX002 (ip), vehicle: saline | dose: 333.0 mg/kg/injection, schedule: Q08DX002 (ip), vehicle: saline
7 of 10: dose: 450.0 mg/kg/injection, schedule: Q01DX001 (ip), vehicle: saline
10 of 10 (2×): dose: 133.0 mg/kg/injection, schedule: Q01DX001 (ip), vehicle: saline
9 of 9: dose: 8.6 mg/kg/injection, schedule: Q03HX032 (ip), vehicle: saline | dose: 36.0 mg/kg/injection, schedule: Q04DX004 (ip), vehicle: saline | dose: 60.0 mg/kg/injection, schedule: Q01DX015 (ip), vehicle: saline
10 of 10 (2×) and 4 of 4: [1] | [2]
4 of 4: dose: 180.0 mg/kg/injection, schedule: Q01DX001 (ip), vehicle: saline | [3]
10 of 10: dose: 3.9 mg/kg/injection, schedule: Q03HX032 (ip), vehicle: saline | dose: 5.8 mg/kg/injection, schedule: Q03HX032 (ip), vehicle: saline | dose: 12.0 mg/kg/injection, schedule: Q01DX015 (ip), vehicle: saline | dose: 13.0 mg/kg/injection, schedule: Q03HX032 (ip), vehicle: saline | dose: 18.0 mg/kg/injection, schedule: Q01DX015 (ip), vehicle: saline | dose: 20.0 mg/kg/injection, schedule: Q03HX032 (ip), vehicle: saline | dose: 22.0 mg/kg/injection, schedule: Q02DX008 (ip), vehicle: saline | dose: 27.0 mg/kg/injection, schedule: Q01DX015 (ip), vehicle: saline | dose: 30.0 mg/kg/injection, schedule: Q03HX032 (ip), vehicle: saline | dose: 33.0 mg/kg/injection, schedule: Q02DX008 (ip), vehicle: saline | dose: 40.0 mg/kg/injection, schedule: Q01DX015 (ip), vehicle: saline | dose: 44.0 mg/kg/injection, schedule: Q02DX008 (ip), vehicle: saline | dose: 54.0 mg/kg/injection, schedule: Q04DX004 (ip), vehicle: saline | dose: 67.0 mg/kg/injection, schedule: Q02DX008 (ip), vehicle: saline | dose: 80.0 mg/kg/injection, schedule: Q04DX004 (ip), vehicle: saline | dose: 90.0 mg/kg/injection, schedule: Q01DX015 (ip), vehicle: saline | dose: 100.0 mg/kg/injection, schedule: Q02DX008 (ip), vehicle: saline | dose: 120.0 mg/kg/injection, schedule: Q04DX004 (ip), vehicle: saline | dose: 135.0 mg/kg/injection, schedule: Q01DX015 (ip), vehicle: saline | dose: 150.0 mg/kg/injection, schedule: Q01DX001 (ip), vehicle: saline | dose: 180.0 mg/kg/injection, schedule: Q04DX004 (ip), vehicle: saline | dose: 250.0 mg/kg/injection, schedule: Q01DX001 (ip), vehicle: saline | dose: 270.0 mg/kg/injection, schedule: Q04DX004 (ip), vehicle: saline | dose: 350.0 mg/kg/injection, schedule: Q01DX001 (ip), vehicle: saline

COc1ccc2c(c1OC(C)=O)-c1cc(O)cc3c1C(C2)N(C(=O)CN(CCO)CCO)CC3 (stereo unspecified)
2 of 2: [4] | [5] | [6]

c1ccc([C@H]2CN3CCSC3=N2)cc1
0 of 4: dose: 32.0 mg/kg/injection, schedule: Q01DX005 (ip), vehicle: saline
4 of 4: dose: 11.5 mg/kg/injection, schedule: Q01DX005 (ip), vehicle: saline | dose: 19.0 mg/kg/injection, schedule: Q01DX005 (ip), vehicle: saline
0 of 3: dose: 50.0 mg/kg/injection, schedule: Q01DX001 (ip), vehicle: saline | dose: 100.0 mg/kg/injection, schedule: Q01DX001 (ip), vehicle: saline | [1] | [2] | [3] | dose: 1000.0 mg/kg/injection, schedule: Q01DX001 (ip), vehicle: saline
3 of 3: dose: 8.0 mg/kg/injection, schedule: Q01DX001 (ip), vehicle: saline | dose: 14.0 mg/kg/injection, schedule: Q01DX001 (ip), vehicle: saline | dose: 23.0 mg/kg/injection, schedule: Q01DX001 (ip), vehicle: saline | dose: 38.0 mg/kg/injection, schedule: Q01DX001 (ip), vehicle: saline

OCCNc1ncc2ccccc2c1-c1ccc(N(CCO)CCO)cc1
2 of 2: [4] | [5] | [6]

Cc1ncc([N+](=O)[O-])n1CCO
3 of 3: dose: 62.5 mg/kg/injection, schedule: Q01DX005 (ip), vehicle: saline with Tween-80 | dose: 125.0 mg/kg/injection, schedule: Q01DX005 (ip), vehicle: saline with Tween-80 | dose: 250.0 mg/kg/injection, schedule: Q01DX001 (ip), vehicle: saline with Tween-80 | dose: 250.0 mg/kg/injection, schedule: Q01DX005 (ip), vehicle: saline with Tween-80 | dose: 500.0 mg/kg/injection, schedule: Q01DX001 (ip), vehicle: saline with Tween-80 | dose: 500.0 mg/kg/injection, schedule: Q01DX005 (ip), vehicle: saline with Tween-80 | dose: 1000.0 mg/kg/injection, schedule: Q01DX001 (ip), vehicle: saline with Tween-80 | dose: 1000.0 mg/kg/injection, schedule: Q01DX005 (ip), vehicle: saline with Tween-80

CCNc1ncc2ccccc2c1-c1ccc(N2CCN(CCCl)CC2)cc1
2 of 2: dose: 1.0 mg/kg/injection, schedule: Q01DX001 (ip), vehicle: saline + alcohol | dose: 10.0 mg/kg/injection, schedule: Q01DX001 (ip), vehicle: saline + alcohol | dose: 100.0 mg/kg/injection, schedule: Q01DX001 (ip), vehicle: saline + alcohol

O=C1OC(C(O)CO)C(O)=C1O (stereo unspecified)
4 of 4: dose: 800.0 mg/kg/injection, schedule: Q01DX009 (ip), vehicle: saline | dose: 1200.0 mg/kg/injection, schedule: Q01DX009 (ip), vehicle: saline | dose: 1600.0 mg/kg/injection, schedule: Q01DX009 (ip), vehicle: saline
